For one molecule, binding results are on record in PMC4829432, “T-box3 is a ciliary protein and regulates stability of the Gli3 transcription factor to control digit number” (eLife, 2016).

These are yes or no findings as the source states them, for the method shown. Binding seen in cells or lysates may run through a third protein. These calls come from enrichment with a bait or labelling near it, and not all partners need be listed.

In this experiment the target is T1, T-box3 (Tbx3), endogenous mouse protein (mouse (endogenous in E10.5 embryos)) (UniProt P70324).
T1 sequence: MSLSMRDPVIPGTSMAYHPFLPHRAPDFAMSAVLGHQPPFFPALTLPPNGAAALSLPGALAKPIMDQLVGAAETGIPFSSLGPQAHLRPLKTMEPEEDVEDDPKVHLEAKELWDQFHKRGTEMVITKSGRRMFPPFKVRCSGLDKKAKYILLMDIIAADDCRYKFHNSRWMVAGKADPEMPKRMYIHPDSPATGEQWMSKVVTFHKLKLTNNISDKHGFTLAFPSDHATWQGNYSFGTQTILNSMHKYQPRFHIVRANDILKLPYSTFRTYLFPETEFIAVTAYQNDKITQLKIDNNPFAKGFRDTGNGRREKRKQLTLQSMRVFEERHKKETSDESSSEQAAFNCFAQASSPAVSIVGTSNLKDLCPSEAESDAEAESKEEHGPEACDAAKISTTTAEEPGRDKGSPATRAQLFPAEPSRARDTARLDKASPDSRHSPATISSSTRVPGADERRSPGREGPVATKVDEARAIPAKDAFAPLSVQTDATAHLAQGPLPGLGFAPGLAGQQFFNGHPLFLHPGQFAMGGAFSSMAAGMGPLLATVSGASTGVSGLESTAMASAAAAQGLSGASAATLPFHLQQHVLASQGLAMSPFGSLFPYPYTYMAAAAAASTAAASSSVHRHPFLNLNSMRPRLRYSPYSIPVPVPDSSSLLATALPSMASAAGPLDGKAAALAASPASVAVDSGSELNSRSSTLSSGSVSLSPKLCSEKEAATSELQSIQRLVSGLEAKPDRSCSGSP
The experiment in a line: affinity purification with mass spectrometry; Tbx3 co-immunoprecipitation on E10.5 mouse embryo lysates, followed by mass spectrometry; endogenous proteins.

B1: Kif7, endogenous mouse protein (natural protein, mouse (endogenous in E10.5 embryos), UniProt B7ZNG0 1-1348, looked up)
chain: MGLEAQRLPGAEEAPVRVALRVRPLLPKELLHGHQSCLRVEPERGRITLGRDRHFGFHVVLGEDTGQEAVYQACVQPLLEAFFEGFNATVFAYGQTGSGKTYTMGEASVASLHEDEQGIIPRAMAEAFKLIDENDLLDCLVHVSYLELYKEEFRDLLEVGTASRDIQLREDDRGNVVLCGVKEVDVEGLDEVLSLLEMGNAARHTGATHFNRLSSRSHTVFTVTLEQRGRTPSRLPRPAAGHLLVSKFHFVDLAGSERVLKTGSTGERLKESIQINSTLLALGNVISALGDPQRRGSHIPYRDSKITRILKDSLGGNAKTVMIACVSPSSSDFDETLNTLNYASRAQNIRNRATVNWHPEAERVPEEQAAGARGPPRHRSETRIIHRGRRVPCPAVGSAAVAAGLGAECARCRARTSAAYSLLRELQAEPGLPGAAARKVRDWLCAVEGERSTLSSASGPDSGIESAPAEDQAAQGTSGRKGDEGTQQLLTLQSQVARLEEENRDFLAALEDAMEQYKLQSDRLREQQEEMVELRLRLELAQPGWGAPGLLQGLPPGSFVPRPHTAPLGGAHTHMLGMMPSTCLPGEEVSSEQQVVSGKEVKAEVLAQADKLRSASSTTSEEEGEEEEEEEEEEEEPPRRTLYLRRNGISNWSQRAGLSPGSPPDRKGPEVCPEEPAAAIPAPQAVGSGKVPVQTRQAPAAMASEWRLAQAQQKIRELAINIRMKEELIGELVRTGKAAQALNRQHSQRIRELEQEAERVRAELCEGQRQLRELEGREPQDASERSRLQEFRKRVAAAQSQVQVLKEKKQATERLVSLSAQSETRLQELERNVQLMRRQQGQLQRRLREETEQKRRLETEMNKRQHRVKELELKHEQQQKILKIKTEEIAAFQRKRRSGSNGSVVSLEQQQKIEEQKKWLDQEMEKVLQQRRALEELGEELRKREVILAKKEALMQEKTGLESKRLRSSQALNEDIVRVSSRLEHLEKELSEKSGQLRQGSAQNQQQIRGEIDTLRQEKDSLLKQRLEIDSKLRQGSLLSPEEERTLFQLDEAIEALDAAIEYKNEAITCRQRVLRASASLLSQCEMNLMAKLSYLSSSETRALLCKYFDKVVTLREEQHQQQIAFSELEMQLEEQQRLVYWLEVALERQRLEMDRQLTLQQKEHEQNVQLLLQQGRDHLGEGLADSKRQYEARIHALEKELGRHMWINQELKQKLSAGSTAGQSQGCERRSLCLENRQCLGNEDGLHPAAPEPLWQSSLLEGVSRVWDESRDLVHAPLPLTWKRSSLCSEQGSSEESRVRETTEPPVGRVLPMGEVGLSWNFGPLPKPRWEPRRTSPGMIDVRKNPL
notes: Kif7, ciliary kinesin family protein, mouse, endogenous in E10.5 forelimb buds and whole embryos; source: endogenous, E10.5 mouse forelimb bud lysate or E10.5 whole embryo lysate (control or Tbx3 null)
For the molecule B1, the binding result was “binds”.
